Experiments:
[1] = Comparative active ester reactivity study with HOPO nucleophile; conditions: 1,2-HOPO 1 eq., 22±2° C.
Description: (§1) General Experimental Protocol for Comparative Active Ester Reactivity Study with HOPO or HOA Nucleophiles
(§2) To a 4 mL scintillation vial containing Compound A-E (in respective experiments; 1 eq.) was added a stir bar followed by 150 μL of HPLC grade acetonitrile. In another 4 mL scintillation vial containing a respective nucleophile (1 eq.) was added 280 μL HPLC grade water. The solutions were combined and allowed to stir at room temperature (22±2° C.) for 4 hours. Timed aliquots at time (T)=15, 30, 60, 120 and 240 minutes were taken and analyzed by HPLC-MS using elution method 1 (Table 1).

[2] = Active ester reactivity study with amino acids (Z-Ser-OH); conditions: Z-Ser-OH 1 eq., 22±2° C.
Description: (§3) General Experimental Protocol for Nucleophilic Reactivity Study with Amino Acids
as §2, with “A or C (1” for “A-E (in respective experiments; 1”, “70” for “150”, “amino acid (1-5” for “nucleophile (1”, “130” for “280”, “water followed by diisopropylethylamine (5 eq.).” for “water.”, “6).” for “1).”

[3] = Nucleophilic reactivity study with L-Lysine; conditions: L-Lysine 5 equiv
Description: General Experimental Protocol for Nucleophilic Reactivity Study with L-Lysine
(§4) To a 4 mL scintillation vial containing Compound A-E (in respective experiments; 1 eq.) was added a stir bar followed by 70 μL of HPLC grade acetonitrile. In another 4 mL scintillation vial containing L-Lysine monohydrochloride (5 eq.) was added 130 μL HPLC grade water followed by diisopropylethylamine (5 eq.). The solutions were combined and allowed to stir at room temperature (22±2° C.). Timed aliquots at time (T)=15, 30, 60 and 120 minutes were taken and analyzed by HPLC-MS using elution method 1 (Table 2).

[4] = Active ester reactivity study with amino acids (Z-Arg-OH); conditions: Z-Arg-OH 1 eq., 22±2° C.
Description: as §3
as §2, with “A or C (1” for “A-E (in respective experiments; 1”, “70” for “150”, “amino acid (1-5” for “nucleophile (1”, “130” for “280”, “water followed by diisopropylethylamine (5 eq.).” for “water.”, “6).” for “1).”

[5] = Comparative active ester reactivity study with HOA nucleophile (N-hydroxy-N-methylbenzamide); conditions: N-Hydroxy-N-methylbenzamide 1 eq., 22±2° C.
Description: as §1, §2

[6] = Active ester reactivity study with amino acids (N-Acetyl-L-Cysteine); conditions: N-Acetyl-L-Cysteine 5 eq., 22±2° C.
Description: as §3
as §2, with “A or C (1” for “A-E (in respective experiments; 1”, “70” for “150”, “amino acid (1-5” for “nucleophile (1”, “130” for “280”, “water followed by diisopropylethylamine (5 eq.).” for “water.”, “6).” for “1).”

[7] = Comparative active ester reactivity study with HOA nucleophile (benzhydroxamic acid); conditions: Benzhydroxamic Acid 1 eq., 22±2° C.
Description: as §1, §2

[8] = Competitive reactivity study between L-Lysine and HOA nucleophile; conditions: L-Lysine 5 eq. / N-Hydroxy-N-methyl benzamide 1 eq
Description: (§5) General Experimental Protocol for Competitive Reactivity Study with L-Lysine and HOPO or HOA Nucleophiles
as §4, with “A (1” for “A-E (in respective experiments; 1”, “acetonitrile followed by a respective HOPO or HOA nucleophile (1 eq).” for “acetonitrile.”, “C.) for 4 hours.” for “C.).”, “60, 120” for “60”, “240” for “120”, “7)” for “2).”

[9] = Competitive reactivity study between L-Lysine and HOPO nucleophile; conditions: L-Lysine 5 eq. / 1,2-HOPO 1 eq.
Description: as §5
as §4, with “A (1” for “A-E (in respective experiments; 1”, “acetonitrile followed by a respective HOPO or HOA nucleophile (1 eq).” for “acetonitrile.”, “C.) for 4 hours.” for “C.).”, “60, 120” for “60”, “240” for “120”, “7)” for “2).”

O=C(CCc1cccnc1)Oc1c(F)c(F)cc(F)c1F [Compound C, 2,3,5,6-Tetrafluorophenyl-3-(pyridin-3-yl)propanoate]
% Nucleophilic Substitution Product ([1]; 15 min): (10.07) %
% Nucleophilic Substitution Product ([1]; 30 min): (12.74) %
% Nucleophilic Substitution Product ([1]; 60 min): (11.09) %
% Nucleophilic Substitution Product ([1]; 120 min): (4.07) %
% Nucleophilic Substitution Product ([1]; 240 min): (1.70) %
% Nucleophilic Substitution Product ([2]; 15 min): (5.90) %
% Nucleophilic Substitution Product ([2]; 30 min): (9.02) %
% Nucleophilic Substitution Product ([2]; 60 min): (12.30) %
% Nucleophilic Substitution Product ([2]; 120 min): (14.11) %
% Nucleophilic Substitution Product ([2]; 240 min): (14.81) %
% Total Lysine Substitution ([3]; 15 min, 22±2° C.): 100%
% Nucleophilic Substitution Product ([4]; 15 min): (19.78) %
% Nucleophilic Substitution Product ([4]; 30 min): (22.24) %
% Nucleophilic Substitution Product ([4]; 60 min): (24.43) %
% Nucleophilic Substitution Product ([4]; 120 min): (24.57) %
% Nucleophilic Substitution Product ([5]; 15 min): (18.44) %
% Nucleophilic Substitution Product ([5]; 30 min): (27.06) %
% Nucleophilic Substitution Product ([5]; 60 min): (37.69) %
% Nucleophilic Substitution Product ([5]; 120 min): (49.10) %
% Nucleophilic Substitution Product ([5]; 240 min): (61.03) %
% Nucleophilic Substitution Product ([6]; 15 min): (4.88) %
% Nucleophilic Substitution Product ([6]; 30 min): (8.05) %
% Nucleophilic Substitution Product ([6]; 60 min): (14.75) %
% Nucleophilic Substitution Product ([6]; 120 min): (43.38) %
% Nucleophilic Substitution Product ([6]; 240 min): (100) %
% Nucleophilic Substitution Product ([7]; 15 min): (40.72) %
% Nucleophilic Substitution Product ([7]; 30 min): (53.89) %
% Nucleophilic Substitution Product ([7]; 60 min): (67.00) %
% Nucleophilic Substitution Product ([7]; 120 min): (80.24) %
% Nucleophilic Substitution Product ([7]; 240 min): (89.53) %

O=C(CCc1cccnc1)Oc1c(Cl)cccc1Cl [Compound A, 2,6-Dichlorophenyl-3-(pyridin-3-yl)propanoate]
% Nucleophilic Substitution Product ([1]; 15 min): (0) %
% Nucleophilic Substitution Product ([1]; 30 min): (0) %
% Nucleophilic Substitution Product ([1]; 60 min): (0) %
% Nucleophilic Substitution Product ([1]; 120 min): (0) %
% Nucleophilic Substitution Product ([1]; 240 min): (0.26) %
% Nucleophilic Substitution Product ([2]; 15 min): (0) %
% Nucleophilic Substitution Product ([2]; 30 min): (0) %
% Nucleophilic Substitution Product ([2]; 60 min): (0.08) %
% Nucleophilic Substitution Product ([2]; 120 min): (0.23) %
% Nucleophilic Substitution Product ([2]; 240 min): (0.44) %
% Total Lysine Substitution ([3]; 15 min, 22±2° C.): 39.56%
% Total Lysine Substitution ([3]; 30 min, 22±2° C.): 73.69%
% Total Lysine Substitution ([3]; 60 min, 22±2° C.): 99.02%
% Total Lysine Substitution ([3]; 120 min, 22±2° C.): 100%
% Total Lysine Substitution ([3]; DMAP 10 mol % added, 15 min): 99.14%
% Total Lysine Substitution ([3]; DMAP 10 mol % added, 30 min): 100%
% Nucleophilic Substitution Product ([4]; 15 min): (1.04) %
% Nucleophilic Substitution Product ([4]; 30 min): (1.8) %
% Nucleophilic Substitution Product ([4]; 60 min): (2.98) %
% Nucleophilic Substitution Product ([4]; 120 min): (4.18) %
% Nucleophilic Substitution Product ([4]; 240 min): (5.81) %
% Nucleophilic Substitution Product ([5]; 15 min): (0.43) %
% Nucleophilic Substitution Product ([5]; 30 min): (0.66) %
% Nucleophilic Substitution Product ([5]; 60 min): (1.53) %
% Nucleophilic Substitution Product ([5]; 120 min): (3.77) %
% Nucleophilic Substitution Product ([5]; 240 min): (7.62) %
% HOPO or HOA Substitution ([8]; 15 min): 0.24%
% Total Lysine Substitution ([8]; 15 min): 34%
% HOPO or HOA Substitution ([8]; 30 min): 0.33%
% Total Lysine Substitution ([8]; 30 min): 84.84%
% HOPO or HOA Substitution ([8]; 60 min): 0.83%
% Total Lysine Substitution ([8]; 60 min): 97.54%
% HOPO or HOA Substitution ([8]; 120 min): 1.01%
% Total Lysine Substitution ([8]; 120 min): 98.99%
% Nucleophilic Substitution Product ([6]; 15 min): (0) %
% Nucleophilic Substitution Product ([6]; 30 min): (0.14) %
% Nucleophilic Substitution Product ([6]; 60 min): (0.16) %
% Nucleophilic Substitution Product ([6]; 120 min): (0.30) %
% Nucleophilic Substitution Product ([6]; 240 min): (17.48) %
% HOPO or HOA Substitution ([9]; 15 min): 0%
% Total Lysine Substitution ([9]; 15 min): 11.67%
% HOPO or HOA Substitution ([9]; 30 min): 0%
% Total Lysine Substitution ([9]; 30 min): 25.48%
% HOPO or HOA Substitution ([9]; 60 min): 0%
% Total Lysine Substitution ([9]; 60 min): 71.71%
% HOPO or HOA Substitution ([9]; 120 min): 0%
% Total Lysine Substitution ([9]; 120 min): 97.99%
% HOPO or HOA Substitution ([9]; 240 min): 0%
% Total Lysine Substitution ([9]; 240 min): 100%
% Nucleophilic Substitution Product ([7]; 15 min): (2.95) %
% Nucleophilic Substitution Product ([7]; 30 min): (4.03) %
% Nucleophilic Substitution Product ([7]; 60 min): (7.64) %
% Nucleophilic Substitution Product ([7]; 120 min): (13.35) %
% Nucleophilic Substitution Product ([7]; 240 min): (21.93) %

Source: US20240139333A1, “2,6-DICHLOROPHENYL ESTER COMPOUNDS AND USE THEREOF” (Fusion Pharmaceuticals Inc., priority 2021, published 2024)
